For some assays here: Strings that start with PEPTIDE1 are HELM notation: dots part the residues, brackets hold end groups and non-standard residues.
Columns and labels:
[1] = general procedure: Fmoc solid-phase peptide synthesis; FmocN(Bn)CH2CH2OCH2CH2O-2-chlorotrityl resin; HOBt/DIC; TBTU/DIPEA; conditions: whole synthesis, scale 2.2 mmol, TFA
[2] = general procedure: Fmoc solid-phase peptide synthesis; HβPhPro-2-chlorotrityl resin; HOBt/DIC; TBTU/DIPEA; conditions: whole synthesis, scale 1.3 mmol, TFA

| Substance | crude mass [1] [g] | crude mass [2] [g] |
| --- | --- | --- |
| PEPTIDE1{[ac].[Cha].R.[Tic].[Nle].[ccap]}$$$$V2.0 | 1.38 | – |
| Ac-Cha-Gpg(Pmc)-Tic-Nle-βPhPro-OH | – | 1.188 |

From patent US7629318B2 (priority 2002, dated 2009)
